Test results reported in paper PMC8729770 (Microbiology Spectrum, 2022).

Experiment: peptide made by a vendor
Conditions: whole synthesis, Liquid chromatography-mass spectrometry

| Sequence | final LC-MS purity |
| --- | --- |
| ATCTNWNCRTQCIARGKRGGYCVERNICKCTS | 93.97% |
| CIANGNGCQPDGRQGNCCSGFCYKQRGWVAGYCRRR | 95.69% |
| CINNGDGCQPDGRQGNCCSGYCHKEPGWVTGYCR | 90.94% |
| GWWKRVFKPVEKFGQRVRDAGVQGIAIAQQGANVLATARGGPPQQ | 90.49% |
| GWWKRVFKPVEKLGQRVRDAGIQGLEIAQQGANVLATARGGPPQQ | 90.85% |
| GWWKRVFKPVERLGQRVRDAGIQGLQIAQQGANVLATVRGGPPQQ | 90.12% |
| IKCVPSQCNQICRVLGKKCGYCKNASTCVCL | 96.43% |
| LSCLFENQAVSAIACGASCITRKGKRGGWCSNGVCRCTPN | 90.56% |
| QIFAQGGGSPGKGYDIYAQGRAKLWESQNQRNSLHGTASYSQHLGGPYGNSRPNVGGGLTFTHRF | 90.00% |
| RKCTASQCTRVCKKLGYKRGYCQSSTKCVC | 90.22% |
| SAPKLEEESALSYIPDAAEAEIAEPASSHGRVRR | 96.53% |
| SWWKKVFKPVEKLGQRVRDATIQGIGIAQQGANVLATVRGGPPQ | 96.40% |
| TTCDLISGTKIENIACAAHCIAMGHKGGYCNSNLICICR | 93.94% |
| VTCDLLEPFLGPAPCMIHCIVRFRKRTGYCNSQNVCVCR | 94.26% |

Same assay, conditions: whole synthesis, Liquid chromatography-mass spectrometry, several disulfide bridges; run 1

| Sequence | final LC-MS purity |
| --- | --- |
| ATCDLLSPFKVGHAACAAHCIARGKRGGWCDKRAVCNCRK [Hill-Def2b] | 99.10% |

Where a sequence shows no end group, the ends are not given.
